Measurements reported in PubChem BioAssay AID504467 (National Center for Advancing Translational Sciences (NCATS), 2011).
In all, about 330,000 compounds went through this assay and about 7,700 (2.3%) were called active. Inconclusive results, whose numbers are uncertain, are shown with a selection of clear calls. The call rests on the fitted dose curve; in most records, active means well fitted inhibition curve with a large enough effect; inconclusive means small, poorly fitted or top-dose-only effect, or effect the other way; inactive means flat fitted curve, though single readings scatter. Where the call is inconclusive, the potency comes from a doubtful curve fit.

Assay: qHTS screen for small molecules that inhibit ELG1-dependent DNA repair in human embryonic kidney (HEK293T) cells expressing luciferase-tagged ELG1; further: nearly all actives have a fitted effect of over 55% in size
Conditions: HEK293T ELG1-luciferase reporter, luminescence, 16 h, DNA damage induced by 5-fluorouridine; activity change, negative = inhibition: at 46.1 µM (top of the series)
Outline: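 Overnight (16 hr) co-exposure of 2,000 cells/well to 5-fluorouridine and compound at 37 °C preceded detection. Luciferase was quantified via ONE-Glo luminescence; loss of signal denotes inhibition.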
On the % scale 0 is the no-effect control and ±100 the full control effect; potency means the concentration at half of the fitted maximal effect.

| Structure (SMILES) | Potency | activity change, negative = inhibition |
| --- | --- | --- |
| COc1ccc(C(C(=O)NC(C)(C)C)N(C[C@H]2CC[C@@H]([C@@H]3CC[C@H](CO)O3)O2)C(=O)c2ccccc2)cc1 (some centres undefined) | inconclusive: 29.1 µM [activator, partial curve, poor fit] |  |
| Cc1cnc(NC(=O)Cc2c[nH]c3ccccc23)s1 | inconclusive: 16.4 µM [activator, single point] |  |
| COc1ccccc1CNC(=O)CCNS(=O)(=O)c1ccc2c(c1)oc(=O)n2C |  | inactive: -6% |
| COc1ccc(-c2noc(C)c2-c2ccc3ccccc3n2)c(O)c1 | inconclusive: 29.1 µM [inhibitor, single point] |  |
| CC1(C)Cc2c(sc(NC(=O)c3ccc(C(=O)c4ccccc4)cc3)c2C#N)C(C)(C)N1 | inconclusive: 6.51 µM [inhibitor, single point] |  |
| Cc1[nH][nH]c(=O)c1C(c1ccc(-c2cccc(Cl)c2)o1)c1c(C)[nH][nH]c1=O | inconclusive: 1.16 µM [inhibitor, partial curve, poor fit] |  |
| CCCSc1nc(=O)n2cc(C)ccc2n1 | inconclusive: 18.4 µM [activator, partial curve] |  |
| Fc1ccccc1Nc1nc(N2CCOCC2)nc(N2CCOCC2)n1 | active: 5.8 µM |  |
| COc1ccc(C(=O)Nc2ccc(S(=O)(=O)Nc3nccnc3OC)cc2)cc1 | inconclusive: 20.6 µM [inhibitor, partial curve] |  |
| Oc1ccc(Cl)cc1CNc1cnc2ccccc2c1 |  | inactive: -4.73% |
| Cc1ccc(C(=O)N/C(=C\c2ccc(-c3cccc([N+](=O)[O-])c3)o2)C(=O)NCCCN2CCOCC2)cc1 |  | inactive: -11.7% |
| Cc1nc2ccccn2c1C(=O)NCCCN1CCOCC1 |  | inactive: 12.8% |
| COc1ccc(CC(=O)Nc2cc(C)ccn2)cc1 | inconclusive: 1.3 µM [activator, partial curve, poor fit] |  |
| CCN(CC)S(=O)(=O)c1cccc(NC(=O)CN2C(=O)NC3(CCC(C)CC3)C2=O)c1 (centres undefined) | inconclusive: 2.06 µM [inhibitor, partial curve, poor fit] |  |
| CC(=O)Nc1ccc(NC(=O)c2nc(S(=O)(=O)Cc3ccccc3)ncc2Cl)cc1 | inconclusive: 29.1 µM [inhibitor, single point] |  |
| CCN(C(=O)c1nn(-c2ccc(OC)cc2)c(=O)c2c1c1ccccc1n2C)c1ccc(OC)cc1 |  | inactive: -3.93% |
| Cc1cccc(CN2CCC(Oc3ccc(C(=O)N4CCCC4)cc3)CC2)n1 |  | inactive: 10.4% |
| Cc1nn(Cc2ccc(Cl)cc2)c(C)c1NC(=O)c1cc(-c2ccc3c(c2)OCO3)on1 | active: 18.4 µM |  |
| O=c1c2c(-c3cccs3)csc2ncn1-c1ccc(Br)cc1 | inconclusive: 16.4 µM [inhibitor, single point] |  |

Some of the entries so far, tab-delimited.
Structure (SMILES)	Potency	activity change, negative = inhibition
Cc1ccc(C(=O)N/C(=C\c2ccc(-c3cccc([N+](=O)[O-])c3)o2)C(=O)NCCCN2CCOCC2)cc1		inactive: -11.7%
Cc1nc2ccccn2c1C(=O)NCCCN1CCOCC1		inactive: 12.8%
